Article PMC11997338

Biological target: T1, hemagglutinin (HA)-tagged endoglin (ENG) (UniProt P17813)
T1 sequence: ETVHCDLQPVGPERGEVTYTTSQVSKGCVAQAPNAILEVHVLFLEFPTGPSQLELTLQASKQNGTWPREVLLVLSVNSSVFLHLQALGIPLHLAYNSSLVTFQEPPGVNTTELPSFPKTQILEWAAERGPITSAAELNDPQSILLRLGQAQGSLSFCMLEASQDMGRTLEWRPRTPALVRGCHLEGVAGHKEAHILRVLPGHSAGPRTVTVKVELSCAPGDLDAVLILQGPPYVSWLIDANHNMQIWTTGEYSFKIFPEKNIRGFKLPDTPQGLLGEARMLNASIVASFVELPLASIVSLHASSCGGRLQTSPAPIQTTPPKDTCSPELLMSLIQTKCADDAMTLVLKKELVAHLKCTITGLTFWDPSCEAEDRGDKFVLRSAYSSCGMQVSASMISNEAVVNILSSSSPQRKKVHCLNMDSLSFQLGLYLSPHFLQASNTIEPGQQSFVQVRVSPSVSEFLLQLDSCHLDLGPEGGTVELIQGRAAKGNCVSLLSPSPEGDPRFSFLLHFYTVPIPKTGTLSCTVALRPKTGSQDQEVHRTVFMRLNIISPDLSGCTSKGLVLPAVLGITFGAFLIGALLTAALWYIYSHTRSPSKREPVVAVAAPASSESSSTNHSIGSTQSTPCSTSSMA
Test: proximity ligation; HEK293T cells with ENG-HA overexpression incubated with recombinant His-tagged DSP protein (0.5 μg/ml) at 37 °C for 1 h, fixed; anti-6X His and anti-ENG antibodies; Duolink in situ PLA; only the binder purified

## recombinant DSP_(aa34–50)-His protein (domain or fragment)
  binding: binds

## recombinant DSP_(Δ34–50)-His protein
  binding: no binding (tested: 0.5 μg/ml)

## recombinant full-length DSP-His protein
  binding: binds

No constants are given. Whether binding was seen depends on the method and setting. Binding seen in cells or lysates may run through a third protein. Binding can be weak; no strength is given. Sequences can lack the tags named with a protein.
